Data as given in PubChem BioAssay AID504791 (Drosophila RNAi Screening Center, 2011).

- Screen: 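Genes of the fly required for silencing by miRNA, siRNA or endo-siRNA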 (primary screen)
- System: Drosophila S2-derived reporter cells
- Knock-down reagent: long dsRNA against Drosophila genes, about 150-250 ng dsRNA per well (siRNA assay); about 80-120 ng (miRNA assay)
- Duration: about 5 days (siRNA assay); about 4 days (miRNA assay)
- Challenge: copper sulfate induction of reporters: 25 µM (siRNA assay); 200 mM stated (miRNA assay), 1-2 days before reading
- Measurement: 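Dual luciferase assay: Renilla to firefly signal ratio in each well, scaled to the mean ratio of its plate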
- Active means: 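a well was a first-pass pick when its plate-scaled ratio rose above 1.5 (siRNA assay) or 1.6 (miRNA assay), or dropped below 0.6; a gene counted only if two separate dsRNAs agreed on retest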
The screen tested about 23,000 reagents; shown is a random part of those with a known target gene and a result. Of all reagents, 199 (0.86%) are marked active. 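Plate-scaled ratios behind the calls are not deposited; printed light signals are raw; many rows marked increased or decreased are still called inactive.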 Names joined by + are all predicted targets of the reagent. Reagent sequences are not shown. Not stated in the record: the direction of the score.

| Target gene | amplicon | stable siRNA reporter change | miRNA reporter change | stable assay Renilla, run 1 (luminescence) | stable assay firefly, run 1 (luminescence) | call |
| --- | --- | --- | --- | --- | --- | --- |
| CG12065 | DRSC17798 | – | – | 7363 | 3.95e5 | inactive |
| CG12065 | DRSC17799 | – | – | 5468 | 2.57e5 | inactive |
| CG30046 | DRSC06691 | – | – | 5990 | 3.50e5 | inactive |
| Vha13 | DRSC16895 | – | – | 6611 | 3.40e5 | inactive |
| CG3511 | DRSC04382 | – | – | 2.15e5 | 1.65e6 | inactive |
| zuc | DRSC02160 | – | – | 6588 | 1.04e6 | inactive |
| Tat | DRSC19602 | – | – | 6246 | 5.32e5 | inactive |
| drpr | DRSC08143 | – | – | 6203 | 3.68e5 | inactive |
| drpr | DRSC08525 | – | – | 5780 | 3.40e5 | inactive |
| IFT57 | DRSC00720 | – | – | 8166 | 4.33e5 | inactive |
| CG4577 | DRSC00658 | – | – | 8878 | 4.96e5 | inactive |
| mRpS16 | DRSC07152 | – | – | 6442 | 4.63e5 | inactive |
| CG17242 | DRSC00493 | – | – | 8530 | 4.20e5 | inactive |
| JYalpha | DRSC17224 | – | – | 6710 | 4.23e5 | inactive |
| alpha-Man-IIa | DRSC15393 | – | – | 6671 | 3.46e5 | inactive |
| CG6592 | DRSC10669 | – | – | 6352 | 4.07e5 | inactive |
| CG42724 | DRSC12567 | reporter ratio lowered past the hit cutoff | – | 7837 | 7.34e5 | active |
| CG42724 | DRSC22275 | – | – | 9155 | 5.75e5 | inactive |
| Grl36a | DRSC21748 | – | – | 7938 | 4.58e5 | inactive |
| CG9395 | DRSC03218 | – | – | 11211 | 5.73e5 | inactive |
| CG12655 | DRSC20678 | – | reporter ratio raised past the hit cutoff | 5275 | 3.81e5 | inactive |
| CG31019 | DRSC13994 | – | – | 8968 | 4.86e5 | inactive |
| CG17567 (retired record) | DRSC02627 | – | – | 5979 | 3.35e5 | inactive |
| CG17567 (retired record) | DRSC22537 | – | – | 4052 | 4.25e5 | inactive |
| CG11816 | DRSC19428 | – | – | 4439 | 2.72e5 | inactive |
| CG33631 | DRSC12763 | – | – | 5248 | 3.29e5 | inactive |
| Nplp4 | DRSC00391 | reporter ratio lowered past the hit cutoff | – | 7359 | 6.75e5 | inactive |
| hpRNA:CR18854 | DRSC02702 | – | – | 9146 | 5.10e5 | inactive |
| Nup188 | DRSC21830 | – | – | 8162 | 5.27e5 | inactive |
| CAH1 + Adat1 | DRSC02009 | – | – | 8769 | 1.75e6 | inactive |
| Jon65Aii | DRSC10665 | – | – | 6486 | 4.68e5 | inactive |
| Scm | DRSC16853 | – | – | 6507 | 3.63e5 | inactive |
| prom | DRSC04684 | – | – | 6803 | 3.71e5 | inactive |
| prom | DRSC21463 | – | – | 8959 | 5.89e5 | inactive |
| prom | DRSC22088 | – | – | 8116 | 5.28e5 | inactive |
| CG12219 | DRSC17829 | – | – | 5546 | 3.05e5 | inactive |
| CG17122 | DRSC10245 | – | – | 6283 | 3.72e5 | inactive |
| srl | DRSC12340 | – | – | 6302 | 4.41e5 | inactive |
| nur | DRSC01342 | – | – | 4463 | 3.86e5 | inactive |
| CG43658 | DRSC20111 | – | – | 5975 | 5.26e5 | inactive |
| Tnpo | DRSC11309 | – | – | 8178 | 4.61e5 | inactive |
| CG12483 | DRSC08278 | – | – | 6612 | 5.28e5 | inactive |
| CG8611 | DRSC19340 | – | – | 8407 | 4.90e5 | inactive |

Continued; the last 5 above are carried over.
| Target gene | amplicon | stable siRNA reporter change | miRNA reporter change | stable assay Renilla, run 1 (luminescence) | stable assay firefly, run 1 (luminescence) | call |
| --- | --- | --- | --- | --- | --- | --- |
| nur | DRSC01342 | – | – | 4463 | 3.86e5 | inactive |
| CG43658 | DRSC20111 | – | – | 5975 | 5.26e5 | inactive |
| Tnpo | DRSC11309 | – | – | 8178 | 4.61e5 | inactive |
| CG12483 | DRSC08278 | – | – | 6612 | 5.28e5 | inactive |
| CG8611 | DRSC19340 | – | – | 8407 | 4.90e5 | inactive |
| CG6066 | DRSC15959 | – | – | 6006 | 4.42e5 | inactive |
| CG6066 | DRSC22228 | – | – | 7903 | 6.58e5 | inactive |
| CG17618 (retired record) + CG45049 | DRSC16163 | – | – | 6510 | 2.88e5 | inactive |
| CG17618 (retired record) + CG45049 | DRSC22054 | reporter ratio raised past the hit cutoff | – | 7512 | 2.67e5 | inactive |
| CG17618 (retired record) + CG45049 | DRSC23175 | – | – | 3576 | 2.44e5 | inactive |
| CG15040 | DRSC19616 | – | – | 4088 | 5.19e5 | inactive |
| CG15040 | DRSC21482 | – | – | 8255 | 5.16e5 | inactive |
| CG15831 (retired record) | DRSC20816 | – | – | 5559 | 3.53e5 | inactive |
| Gat | DRSC17144 | – | – | 6214 | 3.72e5 | inactive |
| CG34159 | DRSC02885 | – | – | 6399 | 2.91e5 | inactive |
| CG34159 | DRSC23222 | – | – | 4986 | 3.24e5 | inactive |
| CG14629 | DRSC18476 | – | – | 5400 | 3.45e5 | inactive |
| cype | DRSC02356 | – | – | 6523 | 3.93e5 | inactive |
| CG42331 | DRSC14633 | – | – | 4507 | 3.53e5 | inactive |
| CG42331 | DRSC16126 | – | – | 6646 | 4.14e5 | inactive |
| CG12374 | DRSC06143 | – | – | 5008 | 2.83e5 | inactive |
| Indy-2 + CG33934 | DRSC15685 | – | – | 10386 | 3.16e5 | inactive |
| Indy-2 + CG33934 | DRSC15686 | reporter ratio lowered past the hit cutoff | – | 7474 | 6.12e5 | inactive |
| shv | DRSC00640 | – | – | 7098 | 4.54e5 | inactive |
| shv | DRSC22122 | – | – | 8878 | 5.25e5 | inactive |
| Tsp47F | DRSC07325 | – | – | 6808 | 3.41e5 | inactive |
| Nrt | DRSC11237 | – | – | 9272 | 4.05e5 | inactive |
| CG14380 | DRSC14840 | – | – | 7242 | 4.58e5 | inactive |
| gudu | DRSC02820 | – | – | 6914 | 4.07e5 | inactive |
| Gr59a | DRSC21550 | – | – | 9787 | 4.86e5 | inactive |
| CG15353 | DRSC00383 | – | – | 4400 | 3.80e5 | inactive |
| Obp56i | DRSC05812 | – | – | 4763 | 4.54e5 | inactive |
| CG34334 | DRSC20643 | – | – | 5750 | 4.16e5 | inactive |
| CG17929 | DRSC15291 | – | – | 7340 | 4.25e5 | inactive |
| Snr1 | DRSC12369 | – | – | 8127 | 6.02e5 | inactive |
| CG14237 | DRSC14731 | – | – | 7134 | 4.19e5 | inactive |
| CG14237 | DRSC23239 | – | – | 4275 | 3.29e5 | inactive |
| TwdlD | DRSC14738 | – | – | 6036 | 2.88e5 | inactive |
| CG5726 | DRSC06946 | reporter ratio raised past the hit cutoff | reporter ratio raised past the hit cutoff | 11460 | 2.69e5 | active |
| CG5726 | DRSC25145 | – | reporter ratio raised past the hit cutoff | – | – | active |
| BNIP3 | DRSC11761 | – | – | 8615 | 5.08e5 | inactive |
| CG10874 | DRSC00297 | – | – | 7854 | 6.23e5 | inactive |
| CG4853 | DRSC06898 | – | – | 10351 | 4.01e5 | inactive |
| CG17219 | DRSC00486 | reporter ratio lowered past the hit cutoff | – | 7656 | 7.11e5 | inactive |
| CG5196 | DRSC15735 | – | – | 6779 | 3.60e5 | inactive |
